Experimental data as given in PubChem BioAssay AID2685 (National Center for Advancing Translational Sciences (NCATS), 2010).
This is one part of the list. Shown are side measurements of this screen, not its main read-out; they come without a call. Compounds called inactive in the main read-out are mostly missing here. Words in brackets tell the shape of the fitted curve; partial curves, single points and poor fits give uncertain potencies.

Experiment: qHTS Assay for Lipid Storage Modulators in Drosophila S3 Cells;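 for cell number change: cells counted by Cell Tracker Red CMTPX staining in the red channel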
Settings: BODIPY lipid droplet fluorescence, 18-24 h; for cell number change: measured here: cell count max response, cells fed with added oleic acid
Procedure, shortened: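 Drosophila S3 cells got compounds at several concentrations plus oleic acid (400 uM solution). Laser-scanning cytometry with 488 nm excitation read lipid droplets at 500-530 nm and cells at 575-640 nm. Percent activity was relative to 20 uM Triacsin C.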

[1] = measured here: cell number channel AC50, cells fed with added oleic acid
[2] = measured here: lipid fluorescence (Fed channel) AC50, cells fed with added oleic acid

Row | SMILES | cell number change [%] | AC50 [1] | AC50 [2]
1 | COc1ccc(-c2csc(N3C(=O)CNC3=S)n2)cc1 | -24.2 | 130 nM [rising, full curve, poor fit] | 1840 nM [rising, partial curve]
2 | Cc1cc(NC(=O)C(C)SCC(=O)N(Cc2ccccc2)c2ccccc2)no1 (stereo not given) | -14.9 | – | –
3 | CCCNC(=O)NC(=O)CSc1nnc(-c2c[nH]c3ccccc23)o1 | 23.9 | – | 29100 nM [falling, single point]
4 | CCCn1c(O)c(N=NC(=O)c2ccco2)c2ccccc21 | -9.51 | 164 nM [falling, full curve] | 18400 nM [rising, single point]
5 | Cc1ccc(C(=O)C2=C(O)C(=O)N(Cc3cccnc3)C2c2ccc(OC(C)C)cc2)o1 (stereo not given) | -9.73 | – | 580 nM [rising, single point]
6 | CN(C)S(=O)(=O)c1cccc(C(=O)OCC(=O)Nc2ccc3c(c2)OCCO3)c1 | -38 | 4.61 nM [falling, full curve, poor fit] | 5.17 nM [falling, full curve, poor fit]
7 | O=C(Nc1ccc(N2CCN(C(=O)c3ccccc3F)CC2)cc1)c1ncn[nH]1 | -6.81 | – | 2310 nM [falling, partial curve, poor fit]
8 | CCOC(=O)c1c(NC(=O)COC(=O)CNC(=O)c2ccco2)sc(C(C)=O)c1C | 14.8 | 146 nM [rising, full curve, poor fit] | 1640 nM [rising, partial curve]
9 | CS(=O)(=O)Nc1cccc(C(=O)CC2(O)C(=O)Nc3ccccc32)c1 (stereo not given) | -14.2 | 326 nM [falling, partial curve, poor fit] | –
10 | COc1ccc(Nc2nc(N)nc(CN3CCN(c4ccccn4)CC3)n2)cc1 | -13.4 | – | 4110 nM [rising, single point]
11 | Cc1cc(C)n2nc(SCc3nnc(SCc4ccccc4Cl)s3)nc2n1 | – | – | 291 nM [rising, partial curve, poor fit]
12 | CCCCOc1ccc(C)cc1CN(CCO)CCO | -61.3 | 29100 nM [falling, single point] | –
13 | COc1ccc(OC)c(C(C)NC(=O)Nc2ccccc2)c1 (stereo not given) | 64.5 | 20600 nM [rising, single point] | 3660 nM [falling, partial curve]
14 | COc1ccccc1C(C)NCC(=O)NCc1ccc(C)cc1 (stereo not given) | 41.1 | 32600 nM [rising, single point] | –
15 | O=C(CSc1nnc(-c2ccccn2)o1)Nc1cccc(Cl)c1 | -7.89 | – | 3550 nM [falling, single point]
16 | CN(C)C(=O)CSc1nnc(CCN)o1 | -1.79 | – | 1160 nM [falling, full curve]
17 | COc1ccc(-c2nnc(NC(=O)CSc3ccc(C)cc3)s2)cc1OC | – | 4.61 nM [falling, full curve, poor fit] | –
18 | Cc1[nH]ccc(=O)c1OCc1c(F)cccc1Cl | 11.3 | 65.1 nM [falling, full curve, poor fit] | 82 nM [falling, full curve, poor fit]

Among those listed so far, 2 have fluorine.
Row | SMILES | cell number change [%] | AC50 [1] | AC50 [2]
7 | O=C(Nc1ccc(N2CCN(C(=O)c3ccccc3F)CC2)cc1)c1ncn[nH]1 | -6.81 | – | 2310 nM [falling, partial curve, poor fit]
18 | Cc1[nH]ccc(=O)c1OCc1c(F)cccc1Cl | 11.3 | 65.1 nM [falling, full curve, poor fit] | 82 nM [falling, full curve, poor fit]

Next structures

Row | SMILES | cell number change [%] | AC50 [1] | AC50 [2]
19 | COc1cc(NC(=O)CSc2nncn2C)c(C)cc1[N+](=O)[O-] | – | 4.61 nM [falling, full curve, poor fit] | –
20 | Cc1cc(C(=O)Nc2ncc(C)s2)c2ccccc2n1 | 95.5 | – | 29100 nM [rising, single point]
21 | COCc1cc(C)n(CC(=O)Nc2ccccc2C(=O)OC)c(=O)c1C#N | 7.31 | 2590 nM [rising, single point] | –
22 | O=[N+]([O-])c1ccccc1Oc1ccc(S(=O)(=O)N2CCOCC2)cc1 | -0.188 | – | 4.61 nM [falling, full curve, poor fit]
23 | CCOc1ccc(-c2cc(NC(=O)Cn3ncc4c3-c3ccccc3OC4)on2)cc1OCC | -71.9 | 11600 nM [falling, partial curve] | 10300 nM [falling, partial curve]
24 | O=[N+]([O-])c1cc(Cl)ccc1NCCNS(=O)(=O)c1ccccc1 | – | – | 18400 nM [rising, single point]
25 | O=C(NCc1ccncc1)c1cccc(S(=O)(=O)Nc2ccc(F)cc2)c1 | 71.5 | 13000 nM [rising, partial curve] | –
26 | O=C(OCC(=O)N1CCc2ccccc21)c1ccc(Cl)nc1 | -20.4 | – | 2310 nM [rising, partial curve]
27 | NNC(=O)c1cccnc1Oc1ccccc1 | 16.2 | 6510 nM [falling, single point] | 6510 nM [falling, single point]
28 | CC(OC(=O)c1ccc(S(=O)(=O)N2CCCCC2)cc1)C(=O)Nc1ccc(C(N)=O)cc1 (stereo not given) | -9.77 | – | 2060 nM [falling, partial curve]
29 | COc1cccc(CN2CC(C(=O)NCc3ccc(C)o3)CCC2=O)c1 (stereo not given) | 1.45 | – | 25900 nM [rising, single point]
30 | O=C(C1CCCO1)N1CCN(C(=S)Nc2cc(F)cc(F)c2)CC1 (stereo not given) | -12.4 | 73.1 nM [rising, full curve, poor fit] | –
31 | COC(=O)C1CCN(CC(=O)Nc2ccc(OC)c(Cl)c2)CC1 | -1.92 | 651 nM [falling, single point] | –
32 | O=C(NC1CCCCCC1)c1nnc(Cc2ccc(Cl)cc2)o1 | -5.47 | – | 20600 nM [rising, single point]
33 | CC1=C(C(=O)N2CCCCC2)C2(CCC(C)CC2)OC1=O (stereo not given) | -5.08 | – | –
34 | Cn1nc(C(=O)NCc2ccccc2)cc1C(=O)NCc1ccccc1 | -36.8 | 206 nM [falling, full curve] | –
35 | O=S(=O)(N1CCOCC1)N1CCN(c2ccc(F)cc2)CC1 | 21.7 | – | 6510 nM [falling, single point]
36 | Cc1cccc(NC(=O)C(C)Sc2nc3ccccc3c(=O)n2CCCN2CCOCC2)c1 (stereo not given) | 33 | 32600 nM [rising, single point] | 29100 nM [rising, single point]
